In PubChem BioAssay AID2662 (National Center for Advancing Translational Sciences (NCATS), 2010):
“And” between values parts separate entries of the source, which are not always exact repeats. Equal entries are not always repeated. Out of some 290,000 compounds screened, about 110 (0.038%) were called active. The shares of active, inactive and inconclusive entries below differ from those in the screen. The call rests on the fitted dose curve; in most records, active means well fitted inhibition curve with a large enough effect in the polarisation, with a control signal flat (not every such curve was filed as active); inconclusive means small, poorly fitted or top-dose-only effect, or effect the other way, or a change in a side signal; inactive means no such curve, though single readings can be large or run the other way; the % refers to the polarisation. Potencies of inconclusive entries are doubtful fits and often do not repeat. “Side channel” marks fits to a control or component signal instead of the main read-out.

Protein sequences, listed by entry. Tags and fused reporters are not part of them.
UniProt Q03164, whole entry, looked up: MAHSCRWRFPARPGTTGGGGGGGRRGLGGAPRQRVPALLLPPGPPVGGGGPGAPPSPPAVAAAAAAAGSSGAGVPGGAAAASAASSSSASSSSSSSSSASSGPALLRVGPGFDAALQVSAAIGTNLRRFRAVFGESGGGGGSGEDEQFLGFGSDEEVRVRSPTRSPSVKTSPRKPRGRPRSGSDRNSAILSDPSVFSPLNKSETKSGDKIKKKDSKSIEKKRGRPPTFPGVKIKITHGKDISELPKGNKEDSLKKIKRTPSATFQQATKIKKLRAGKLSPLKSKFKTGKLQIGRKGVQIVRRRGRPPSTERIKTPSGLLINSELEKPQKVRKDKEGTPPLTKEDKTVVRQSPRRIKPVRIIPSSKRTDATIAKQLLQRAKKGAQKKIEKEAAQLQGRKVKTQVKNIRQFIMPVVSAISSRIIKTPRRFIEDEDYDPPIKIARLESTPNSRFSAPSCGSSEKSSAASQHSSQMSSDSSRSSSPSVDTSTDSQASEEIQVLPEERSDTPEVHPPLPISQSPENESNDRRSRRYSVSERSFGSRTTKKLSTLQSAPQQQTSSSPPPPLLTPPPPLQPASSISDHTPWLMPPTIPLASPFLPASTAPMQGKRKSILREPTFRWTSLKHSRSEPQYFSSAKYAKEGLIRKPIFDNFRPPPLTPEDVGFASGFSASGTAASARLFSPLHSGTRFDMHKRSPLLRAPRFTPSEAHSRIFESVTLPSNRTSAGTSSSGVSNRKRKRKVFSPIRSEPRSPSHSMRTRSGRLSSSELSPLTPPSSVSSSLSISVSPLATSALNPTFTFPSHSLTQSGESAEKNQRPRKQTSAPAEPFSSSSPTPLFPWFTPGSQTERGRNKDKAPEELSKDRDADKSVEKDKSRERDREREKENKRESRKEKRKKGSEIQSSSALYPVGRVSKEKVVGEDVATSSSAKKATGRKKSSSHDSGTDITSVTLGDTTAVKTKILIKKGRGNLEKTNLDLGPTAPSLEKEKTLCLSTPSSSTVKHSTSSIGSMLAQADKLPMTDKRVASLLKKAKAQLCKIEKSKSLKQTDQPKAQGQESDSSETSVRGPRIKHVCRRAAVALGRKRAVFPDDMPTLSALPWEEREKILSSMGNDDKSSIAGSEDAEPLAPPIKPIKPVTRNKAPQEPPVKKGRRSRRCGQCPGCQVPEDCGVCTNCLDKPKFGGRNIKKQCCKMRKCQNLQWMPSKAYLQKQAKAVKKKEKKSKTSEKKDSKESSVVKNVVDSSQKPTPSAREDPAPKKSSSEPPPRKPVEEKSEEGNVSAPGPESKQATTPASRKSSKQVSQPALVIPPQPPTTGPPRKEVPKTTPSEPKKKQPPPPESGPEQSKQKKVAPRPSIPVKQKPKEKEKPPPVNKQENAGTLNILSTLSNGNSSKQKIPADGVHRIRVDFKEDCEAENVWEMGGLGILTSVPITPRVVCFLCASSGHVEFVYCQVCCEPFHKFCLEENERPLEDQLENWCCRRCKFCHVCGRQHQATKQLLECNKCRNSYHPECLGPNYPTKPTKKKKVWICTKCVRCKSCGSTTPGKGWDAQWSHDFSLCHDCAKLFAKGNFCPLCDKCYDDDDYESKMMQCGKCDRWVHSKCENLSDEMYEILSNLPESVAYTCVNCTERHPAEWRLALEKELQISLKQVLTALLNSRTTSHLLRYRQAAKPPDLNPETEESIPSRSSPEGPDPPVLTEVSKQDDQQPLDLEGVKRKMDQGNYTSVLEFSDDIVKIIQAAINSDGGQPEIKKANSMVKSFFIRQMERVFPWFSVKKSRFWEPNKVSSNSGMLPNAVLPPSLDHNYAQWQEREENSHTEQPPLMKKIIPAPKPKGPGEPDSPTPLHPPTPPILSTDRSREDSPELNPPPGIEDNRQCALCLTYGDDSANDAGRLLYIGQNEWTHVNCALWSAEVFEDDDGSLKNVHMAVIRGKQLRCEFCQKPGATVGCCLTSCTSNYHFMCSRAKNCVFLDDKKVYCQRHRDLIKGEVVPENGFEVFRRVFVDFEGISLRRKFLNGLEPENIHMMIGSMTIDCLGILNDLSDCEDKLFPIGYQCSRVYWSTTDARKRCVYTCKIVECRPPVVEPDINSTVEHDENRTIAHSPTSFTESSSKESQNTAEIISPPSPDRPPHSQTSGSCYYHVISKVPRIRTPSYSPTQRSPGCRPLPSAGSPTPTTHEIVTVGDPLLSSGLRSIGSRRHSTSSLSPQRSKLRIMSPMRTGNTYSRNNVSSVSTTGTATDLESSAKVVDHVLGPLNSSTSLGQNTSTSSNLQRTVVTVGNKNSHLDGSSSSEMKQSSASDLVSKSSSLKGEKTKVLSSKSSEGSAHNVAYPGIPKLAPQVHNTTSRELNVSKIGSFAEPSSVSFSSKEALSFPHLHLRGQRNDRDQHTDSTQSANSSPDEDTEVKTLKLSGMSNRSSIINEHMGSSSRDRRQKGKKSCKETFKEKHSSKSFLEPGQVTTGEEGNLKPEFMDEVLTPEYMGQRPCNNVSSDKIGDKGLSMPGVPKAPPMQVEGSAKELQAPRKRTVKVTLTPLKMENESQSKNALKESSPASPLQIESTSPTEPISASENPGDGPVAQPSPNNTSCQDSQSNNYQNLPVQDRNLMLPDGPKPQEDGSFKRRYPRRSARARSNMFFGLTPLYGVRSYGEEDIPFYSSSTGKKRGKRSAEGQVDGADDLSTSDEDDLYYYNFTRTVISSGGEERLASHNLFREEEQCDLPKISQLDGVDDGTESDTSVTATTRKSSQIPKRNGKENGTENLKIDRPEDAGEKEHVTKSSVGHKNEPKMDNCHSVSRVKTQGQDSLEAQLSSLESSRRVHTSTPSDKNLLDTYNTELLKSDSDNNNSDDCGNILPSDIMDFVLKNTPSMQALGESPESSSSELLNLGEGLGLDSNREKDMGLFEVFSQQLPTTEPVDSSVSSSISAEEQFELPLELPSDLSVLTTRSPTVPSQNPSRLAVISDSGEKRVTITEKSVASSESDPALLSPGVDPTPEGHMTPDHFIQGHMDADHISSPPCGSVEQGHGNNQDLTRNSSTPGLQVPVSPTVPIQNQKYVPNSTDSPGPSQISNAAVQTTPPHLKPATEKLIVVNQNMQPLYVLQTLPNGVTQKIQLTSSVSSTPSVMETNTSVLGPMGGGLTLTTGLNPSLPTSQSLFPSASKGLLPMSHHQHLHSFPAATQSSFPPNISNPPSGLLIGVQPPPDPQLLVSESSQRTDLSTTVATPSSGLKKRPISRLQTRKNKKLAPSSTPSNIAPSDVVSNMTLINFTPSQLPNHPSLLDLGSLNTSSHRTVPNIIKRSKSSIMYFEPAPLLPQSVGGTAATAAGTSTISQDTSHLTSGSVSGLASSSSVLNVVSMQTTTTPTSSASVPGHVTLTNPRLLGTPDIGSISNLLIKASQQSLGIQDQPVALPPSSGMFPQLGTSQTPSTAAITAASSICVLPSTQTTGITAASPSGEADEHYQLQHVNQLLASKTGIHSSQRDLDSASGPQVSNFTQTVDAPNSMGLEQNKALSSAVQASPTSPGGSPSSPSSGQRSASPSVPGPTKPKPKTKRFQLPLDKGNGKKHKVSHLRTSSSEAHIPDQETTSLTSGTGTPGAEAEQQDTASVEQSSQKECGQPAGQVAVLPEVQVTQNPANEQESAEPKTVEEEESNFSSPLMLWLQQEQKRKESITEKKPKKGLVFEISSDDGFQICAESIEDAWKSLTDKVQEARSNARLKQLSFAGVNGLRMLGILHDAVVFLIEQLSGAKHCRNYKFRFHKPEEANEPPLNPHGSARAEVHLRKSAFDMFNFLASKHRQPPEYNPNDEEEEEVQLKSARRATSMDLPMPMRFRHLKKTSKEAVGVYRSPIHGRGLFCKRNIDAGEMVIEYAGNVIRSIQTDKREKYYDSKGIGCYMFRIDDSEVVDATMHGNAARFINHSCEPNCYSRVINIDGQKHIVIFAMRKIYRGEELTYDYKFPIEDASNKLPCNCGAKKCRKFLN

target: Histone-lysine N-methyltransferase 2A (Homo sapiens) (UniProt Q03164); assay: qHTS Fluorescence Polarization Assay for Inhibitors of MLL CXXC domain - DNA interaction; details: MLL-CXXC / FITC-HOXA9 DNA fluorescence polarization; activity change, negative = inhibition: at 115 µM (top of the series)
Method in brief: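 Steps: dispense CXXC domain solution (7 uM) → pin compounds or unlabeled HOX-A9 DNA control → 5 min ambient → add FLSN-HOX-A9 solution (50 nM) → spin → 30 min ambient → fluorescence polarization. Tris pH 7.5/NaCl/DTT/BSA buffer.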
Potency means the concentration at half of the fitted maximal effect.

Structure (SMILES) | Potency | activity change, negative = inhibition
COc1ccc(/C=C/C(=O)OCC(=O)Nc2cc(C(N)=O)cc(C(N)=O)c2)cc1 | inconclusive: 20 µM [inhibitor, partial curve] | –
CCOc1nc(NC(=O)NS(=O)(=O)c2cccc(Cl)c2)nc(-c2ccccc2)n1 | – | inactive: -3.74%
Cc1ccc(S(=O)(=O)N2CCOCC2)cc1NC(=O)COc1ncnc2ccccc12 | inconclusive: 31.6 µM [fluorescent, side channel, partial curve, poor fit] | –
Cc1ccc(O)c(N=CC2=C(O)c3ccccc3C2=O)c1 | inconclusive: 2.82 µM [quencher, side channel, full curve] | –
Cc1ccccc1OCCSc1nc2ccccc2n1CCC(=O)O | inconclusive: 31.6 µM [inhibitor, partial curve] | –
COc1ccccc1CNc1cc(C)ccn1 | – | inactive: 8.12%
COCC(=O)N1CCCC(CNS(=O)(=O)c2ccc(OC)cc2)C1 (configuration not stated) | – | inactive: 6.72%
CCOC(=O)c1ccccc1NC(=O)COC(=O)CC1CCCCC1 | – | inactive: -3.42%
c1ccc(C2CCC(N3CCNCC3)CC2)cc1 (configuration not stated) | inconclusive: 79.4 µM [fluorescent, side channel, single point] | –
C=CC[n+]1c(/C=C2\C=Cc3cc(C)ccc3N2CC)ccc2ccccc21 | inconclusive: 28.2 µM [quencher, side channel, partial curve] | –
Cc1ccc(C(=O)NNC(=S)NC(=O)c2ccco2)cc1 | inconclusive: 35.5 µM [inhibitor, partial curve, poor fit] | –
O=C1c2c(O)ccc(O)c2C(=O)c2c(NCCNCCO)ccc(NCCNCCO)c21 | inconclusive: 12.6 µM [quencher, side channel, full curve] and inconclusive: 1.12 µM [quencher, side channel, full curve] | –
O=C(c1cccc(S(=O)(=O)N2CCCC2)c1)N1CCN(c2ncccn2)CC1 | inconclusive: 1 µM [fluorescent, side channel, full curve] | –
COc1ccc(NS(=O)(=O)c2cc(N)ccc2N2CCOCC2)cc1 | – | inactive: -3.23%
COc1ccc(-c2csc(NC(=O)c3cc(C)oc3C)n2)cc1OC | inconclusive: 70.8 µM [fluorescent, side channel, single point] | –
CNC[C@H](Cc1ccccc1)NC[C@@H](Cc1cccc2ccccc12)NCCc1ccc(C)cc1 | inconclusive: 5.62 µM [quencher, side channel, full curve] | –
Nc1nnc(SCC(=O)Nc2ccc3nc(SCC(=O)Nc4ccccc4)sc3c2)s1 | – | inconclusive: 6.41% [phenotype inactive]

Complete entries as entered above:
COc1ccc(/C=C/C(=O)OCC(=O)Nc2cc(C(N)=O)cc(C(N)=O)c2)cc1 as listed: Potency: inconclusive: 20 µM [inhibitor, partial curve]
COc1ccccc1CNc1cc(C)ccn1 as listed: activity change, negative = inhibition: inactive: 8.12%
